# Drug screen on melanoma cell lines: cell count

Source: doi:10.1371/journal.pone.0140310, primary screening data, rounded.

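The test systems are human melanoma cell lines, treated with a pair of drugs for 72 h and then stained and imaged. The read-out is cell count (nuclei) in % of the DMSO control; lower values mean stronger growth inhibition or killing. Every drug was used at one fixed concentration, the higher of two screened. The file gives one value for each pair and line, without errors, so small differences may be noise.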 This is part of the screen, not chosen by result.

All values are for the listed drug together with PF-562271 (0.4 µM): CN(c1ncccc1CNc1nc(Nc2ccc3c(c2)CC(=O)N3)ncc1C(F)(F)F)S(C)(=O)=O

Drugs:
pazopanib, 2 µM: Cc1ccc(Nc2nccc(N(C)c3ccc4c(C)n(C)nc4c3)n2)cc1S(N)(=O)=O
NVP-TAE684, 0.4 µM: COc1cc(N2CCC(N3CCN(C)CC3)CC2)ccc1Nc1ncc(Cl)c(Nc2ccccc2S(=O)(=O)C(C)C)n1
OSU-03012, 5 µM: NCC(=O)Nc1ccc(-n2nc(C(F)(F)F)cc2-c2ccc3c(ccc4ccccc43)c2)cc1
XAV939, 10 µM: Oc1nc(-c2ccc(C(F)(F)F)cc2)nc2c1CSCC2
pioglitazone, 10 µM: CCc1ccc(CCOc2ccc(CC3SC(=O)NC3=O)cc2)nc1 (stereo not given)
crizotinib, 1 µM: C[C@@H](Oc1cc(-c2cnn(C3CCNCC3)c2)cnc1N)c1c(Cl)ccc(F)c1Cl
SNS-032, 0.05 µM: CC(C)(C)c1cnc(CSc2cnc(NC(=O)C3CCNCC3)s2)o1
tipifarnib, 0.05 µM: Cn1cncc1[C@@](N)(c1ccc(Cl)cc1)c1ccc2c(c1)c(-c1cccc(Cl)c1)cc(=O)n2C
lenalidomide, 5 µM: Nc1cccc2c1CN(C1CCC(=O)NC1=O)C2=O (stereo not given)
cediranib, 2 µM: COc1cc2c(Oc3ccc4[nH]c(C)cc4c3F)ncnc2cc1OCCCN1CCCC1
VX-702, 2 µM: NC(=O)c1ccc(N(C(N)=O)c2c(F)cccc2F)nc1-c1ccc(F)cc1F
FK866, 0.05 µM: O=C(/C=C/c1cccnc1)NCCCCC1CCN(C(=O)c2ccccc2)CC1
midostaurin, 0.4 µM: CO[C@@H]1[C@H](N(C)C(=O)c2ccccc2)C[C@H]2O[C@]1(C)n1c3ccccc3c3c4c(c5c6ccccc6n2c5c31)C(=O)NC4
SNS-314, 0.004 µM: O=C(Nc1cccc(Cl)c1)Nc1ncc(CCNc2ncnc3ccsc23)s1
vatalanib, 10 µM: Clc1ccc(Nc2nnc(Cc3ccncc3)c3ccccc23)cc1
stibogluconate, 10 µM: O=C(O)[C@@H]1[O][Sb](=[O])([O][Sb]2(=[O])[O][C@H]([C@H](O)CO)[C@H](O)[C@H](C(=O)O)[O]2)[O][C@H]([C@H](O)CO)[C@@H]1O (stereo not given in full)
bortezomib, 0.005 µM: CC(C)C[C@H](NC(=O)[C@H](Cc1ccccc1)NC(=O)c1cnccn1)B(O)O
tamatinib, 2 µM: COc1cc(Nc2ncc(F)c(Nc3ccc4c(n3)NC(=O)C(C)(C)O4)n2)cc(OC)c1OC
ENMD-2076, 0.2 µM: Cc1cc(Nc2cc(N3CCN(C)CC3)nc(/C=C/c3ccccc3)n2)n[nH]1
vismodegib, 5 µM: CS(=O)(=O)c1ccc(C(=O)Nc2ccc(Cl)c(-c3ccccn3)c2)c(Cl)c1

| Second drug | COLO 829 |
|---|---|
| cediranib | 77.5 |
| OSU-03012 | 53.5 |
| lenalidomide | 58.5 |
| NVP-TAE684 | 97.7 |
| SNS-032 | 66.3 |
| pioglitazone | 75.7 |
| XAV939 | 98.6 |
| vatalanib | 58.2 |
| bortezomib | 12.0 |
| tipifarnib | 69.1 |
| ENMD-2076 | 81.9 |
| FK866 | 36.0 |
| VX-702 | 60.3 |
| midostaurin | 48.7 |
| vismodegib | 69.0 |
| stibogluconate | 79.2 |
| SNS-314 | 56.0 |
| crizotinib | 66.7 |
| pazopanib | 79.8 |
| tamatinib | 60.1 |

Repeated from the top, 3 entries:

Second drug,COLO 829
cediranib,77.5
OSU-03012,53.5
lenalidomide,58.5